Binding data for one substance are collected here from paper PMC6851287.

Sequences of proteins named here, by UniProt entry; tags and fusion partners are left off. Residues count along the entry.
UniProt P19838, residues 1-433: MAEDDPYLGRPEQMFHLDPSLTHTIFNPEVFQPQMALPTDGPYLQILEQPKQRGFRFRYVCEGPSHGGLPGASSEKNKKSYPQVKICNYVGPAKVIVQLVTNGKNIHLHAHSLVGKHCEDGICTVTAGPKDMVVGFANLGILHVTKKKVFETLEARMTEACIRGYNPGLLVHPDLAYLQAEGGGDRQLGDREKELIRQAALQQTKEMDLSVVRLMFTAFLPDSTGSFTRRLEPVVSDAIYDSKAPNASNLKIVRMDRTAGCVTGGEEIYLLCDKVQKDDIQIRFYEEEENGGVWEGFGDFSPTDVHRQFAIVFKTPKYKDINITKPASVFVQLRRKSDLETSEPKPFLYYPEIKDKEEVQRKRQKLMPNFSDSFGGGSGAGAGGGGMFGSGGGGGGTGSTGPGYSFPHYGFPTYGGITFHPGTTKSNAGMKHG
UniProt Q04206: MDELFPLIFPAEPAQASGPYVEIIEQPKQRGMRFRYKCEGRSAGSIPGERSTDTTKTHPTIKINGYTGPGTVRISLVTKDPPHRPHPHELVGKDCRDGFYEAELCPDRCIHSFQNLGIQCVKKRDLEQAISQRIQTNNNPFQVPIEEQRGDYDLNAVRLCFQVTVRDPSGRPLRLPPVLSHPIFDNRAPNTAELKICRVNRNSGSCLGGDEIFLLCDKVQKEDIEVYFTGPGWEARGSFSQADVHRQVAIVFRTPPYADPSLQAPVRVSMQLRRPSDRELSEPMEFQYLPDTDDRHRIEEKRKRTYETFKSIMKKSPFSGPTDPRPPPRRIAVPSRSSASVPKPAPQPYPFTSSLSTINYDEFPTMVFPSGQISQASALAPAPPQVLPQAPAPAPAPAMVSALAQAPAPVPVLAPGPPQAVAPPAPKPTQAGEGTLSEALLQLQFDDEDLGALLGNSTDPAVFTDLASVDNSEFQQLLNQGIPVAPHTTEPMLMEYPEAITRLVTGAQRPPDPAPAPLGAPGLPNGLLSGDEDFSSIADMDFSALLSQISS

No constants are given. Whether binding was seen depends on the method and setting. Binding seen in cells or lysates may run through a third protein. Some entries that bind do so weakly or less than the wild type.

The target of the assay is NFKB1 p50 (human (endogenous in primary monocyte-derived macrophages)) (UniProt P19838). The assay is described as follows: co-IP; 50 μg anti-NFKB1 immobilised on coupling gel (Pierce coimmunoprecipitation kit), incubated with 50 μg of cytoplasmic or nuclear fractions of macrophages left uninfected or infected with HIV for 10 days; also nuclear extracts of uninfected macrophages treated with Tat, gp120 or RNA40 for 24 h; Western blot with anti-RELA or anti-RELB.

As for RELA (from UniProt Q04206 1-551), the binding result is “binds”.
